From the supplement of paper PMC10849652
The list shows a part of the results.

Sequences of proteins named here, by UniProt entry; tags and fusion partners are left off. A change or cut given only in a name is not applied to a line headed by its entry.
UniProt P42226: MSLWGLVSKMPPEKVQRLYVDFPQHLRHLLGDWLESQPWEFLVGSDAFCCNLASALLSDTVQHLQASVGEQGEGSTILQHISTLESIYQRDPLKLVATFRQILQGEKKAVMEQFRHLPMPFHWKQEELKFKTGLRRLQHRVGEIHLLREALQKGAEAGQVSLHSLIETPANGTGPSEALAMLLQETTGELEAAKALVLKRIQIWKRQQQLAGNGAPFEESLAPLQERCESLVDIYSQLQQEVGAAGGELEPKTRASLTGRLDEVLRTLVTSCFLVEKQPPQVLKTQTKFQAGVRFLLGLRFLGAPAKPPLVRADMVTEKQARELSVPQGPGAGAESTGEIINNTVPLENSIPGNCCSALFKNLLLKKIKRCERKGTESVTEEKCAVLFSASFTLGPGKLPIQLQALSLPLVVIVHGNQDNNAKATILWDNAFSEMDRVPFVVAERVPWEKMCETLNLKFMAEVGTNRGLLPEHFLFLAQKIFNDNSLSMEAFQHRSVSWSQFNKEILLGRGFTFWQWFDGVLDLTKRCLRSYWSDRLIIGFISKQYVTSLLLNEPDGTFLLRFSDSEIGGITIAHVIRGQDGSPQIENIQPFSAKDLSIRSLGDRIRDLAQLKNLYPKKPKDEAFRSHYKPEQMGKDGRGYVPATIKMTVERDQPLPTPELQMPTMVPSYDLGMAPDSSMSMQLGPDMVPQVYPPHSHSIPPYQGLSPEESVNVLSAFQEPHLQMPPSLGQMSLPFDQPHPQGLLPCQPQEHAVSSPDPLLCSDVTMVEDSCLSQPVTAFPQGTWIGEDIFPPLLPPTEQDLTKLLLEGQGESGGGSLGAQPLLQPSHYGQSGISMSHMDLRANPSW
UniProt Q13247: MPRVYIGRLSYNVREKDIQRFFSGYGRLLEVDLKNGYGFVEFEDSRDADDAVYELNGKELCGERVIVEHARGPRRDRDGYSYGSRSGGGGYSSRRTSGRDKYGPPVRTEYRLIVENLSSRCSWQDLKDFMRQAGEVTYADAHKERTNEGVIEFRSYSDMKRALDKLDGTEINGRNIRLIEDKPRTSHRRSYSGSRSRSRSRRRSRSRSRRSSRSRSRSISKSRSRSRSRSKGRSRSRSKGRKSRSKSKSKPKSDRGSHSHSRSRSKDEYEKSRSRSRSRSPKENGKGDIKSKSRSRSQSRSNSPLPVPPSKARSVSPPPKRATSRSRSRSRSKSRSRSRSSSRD
UniProt O43278: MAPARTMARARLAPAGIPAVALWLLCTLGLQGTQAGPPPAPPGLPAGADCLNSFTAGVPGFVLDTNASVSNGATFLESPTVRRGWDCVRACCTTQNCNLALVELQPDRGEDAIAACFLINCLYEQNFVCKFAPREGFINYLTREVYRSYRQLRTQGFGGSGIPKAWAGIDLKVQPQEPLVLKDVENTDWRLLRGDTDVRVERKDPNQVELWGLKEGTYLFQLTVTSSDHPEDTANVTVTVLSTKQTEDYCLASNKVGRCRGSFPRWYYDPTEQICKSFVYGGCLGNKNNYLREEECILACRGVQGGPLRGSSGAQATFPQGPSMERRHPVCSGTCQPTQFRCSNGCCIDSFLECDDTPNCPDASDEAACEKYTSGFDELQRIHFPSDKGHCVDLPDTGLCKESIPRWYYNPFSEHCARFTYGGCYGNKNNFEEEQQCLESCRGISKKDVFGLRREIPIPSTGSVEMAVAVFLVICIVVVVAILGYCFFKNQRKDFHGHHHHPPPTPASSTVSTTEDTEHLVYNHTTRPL
UniProt Q08945, whole entry, looked up: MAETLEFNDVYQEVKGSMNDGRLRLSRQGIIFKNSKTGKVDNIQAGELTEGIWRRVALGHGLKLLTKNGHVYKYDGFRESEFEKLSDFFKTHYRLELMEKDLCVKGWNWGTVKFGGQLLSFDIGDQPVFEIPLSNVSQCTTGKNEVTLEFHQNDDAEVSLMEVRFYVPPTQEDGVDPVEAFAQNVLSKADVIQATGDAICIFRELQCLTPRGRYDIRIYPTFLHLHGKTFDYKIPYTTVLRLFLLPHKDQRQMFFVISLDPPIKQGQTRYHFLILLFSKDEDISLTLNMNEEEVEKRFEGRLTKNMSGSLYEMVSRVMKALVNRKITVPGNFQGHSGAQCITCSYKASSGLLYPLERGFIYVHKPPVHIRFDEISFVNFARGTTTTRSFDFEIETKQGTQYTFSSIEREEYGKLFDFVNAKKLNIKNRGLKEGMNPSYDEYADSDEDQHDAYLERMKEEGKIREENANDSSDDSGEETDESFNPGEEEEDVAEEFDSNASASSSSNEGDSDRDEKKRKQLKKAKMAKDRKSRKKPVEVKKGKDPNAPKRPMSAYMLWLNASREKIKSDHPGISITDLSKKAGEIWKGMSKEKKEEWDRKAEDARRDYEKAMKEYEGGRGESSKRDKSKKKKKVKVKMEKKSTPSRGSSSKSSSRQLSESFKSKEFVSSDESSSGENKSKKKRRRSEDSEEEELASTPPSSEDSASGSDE
UniProt Q13242, whole entry, looked up: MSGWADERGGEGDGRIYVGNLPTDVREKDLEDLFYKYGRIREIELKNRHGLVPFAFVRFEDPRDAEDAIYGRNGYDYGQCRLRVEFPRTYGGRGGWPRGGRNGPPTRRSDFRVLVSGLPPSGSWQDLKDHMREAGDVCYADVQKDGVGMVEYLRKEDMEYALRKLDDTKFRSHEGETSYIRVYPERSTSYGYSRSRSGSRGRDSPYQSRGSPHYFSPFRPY
UniProt Q96JI7: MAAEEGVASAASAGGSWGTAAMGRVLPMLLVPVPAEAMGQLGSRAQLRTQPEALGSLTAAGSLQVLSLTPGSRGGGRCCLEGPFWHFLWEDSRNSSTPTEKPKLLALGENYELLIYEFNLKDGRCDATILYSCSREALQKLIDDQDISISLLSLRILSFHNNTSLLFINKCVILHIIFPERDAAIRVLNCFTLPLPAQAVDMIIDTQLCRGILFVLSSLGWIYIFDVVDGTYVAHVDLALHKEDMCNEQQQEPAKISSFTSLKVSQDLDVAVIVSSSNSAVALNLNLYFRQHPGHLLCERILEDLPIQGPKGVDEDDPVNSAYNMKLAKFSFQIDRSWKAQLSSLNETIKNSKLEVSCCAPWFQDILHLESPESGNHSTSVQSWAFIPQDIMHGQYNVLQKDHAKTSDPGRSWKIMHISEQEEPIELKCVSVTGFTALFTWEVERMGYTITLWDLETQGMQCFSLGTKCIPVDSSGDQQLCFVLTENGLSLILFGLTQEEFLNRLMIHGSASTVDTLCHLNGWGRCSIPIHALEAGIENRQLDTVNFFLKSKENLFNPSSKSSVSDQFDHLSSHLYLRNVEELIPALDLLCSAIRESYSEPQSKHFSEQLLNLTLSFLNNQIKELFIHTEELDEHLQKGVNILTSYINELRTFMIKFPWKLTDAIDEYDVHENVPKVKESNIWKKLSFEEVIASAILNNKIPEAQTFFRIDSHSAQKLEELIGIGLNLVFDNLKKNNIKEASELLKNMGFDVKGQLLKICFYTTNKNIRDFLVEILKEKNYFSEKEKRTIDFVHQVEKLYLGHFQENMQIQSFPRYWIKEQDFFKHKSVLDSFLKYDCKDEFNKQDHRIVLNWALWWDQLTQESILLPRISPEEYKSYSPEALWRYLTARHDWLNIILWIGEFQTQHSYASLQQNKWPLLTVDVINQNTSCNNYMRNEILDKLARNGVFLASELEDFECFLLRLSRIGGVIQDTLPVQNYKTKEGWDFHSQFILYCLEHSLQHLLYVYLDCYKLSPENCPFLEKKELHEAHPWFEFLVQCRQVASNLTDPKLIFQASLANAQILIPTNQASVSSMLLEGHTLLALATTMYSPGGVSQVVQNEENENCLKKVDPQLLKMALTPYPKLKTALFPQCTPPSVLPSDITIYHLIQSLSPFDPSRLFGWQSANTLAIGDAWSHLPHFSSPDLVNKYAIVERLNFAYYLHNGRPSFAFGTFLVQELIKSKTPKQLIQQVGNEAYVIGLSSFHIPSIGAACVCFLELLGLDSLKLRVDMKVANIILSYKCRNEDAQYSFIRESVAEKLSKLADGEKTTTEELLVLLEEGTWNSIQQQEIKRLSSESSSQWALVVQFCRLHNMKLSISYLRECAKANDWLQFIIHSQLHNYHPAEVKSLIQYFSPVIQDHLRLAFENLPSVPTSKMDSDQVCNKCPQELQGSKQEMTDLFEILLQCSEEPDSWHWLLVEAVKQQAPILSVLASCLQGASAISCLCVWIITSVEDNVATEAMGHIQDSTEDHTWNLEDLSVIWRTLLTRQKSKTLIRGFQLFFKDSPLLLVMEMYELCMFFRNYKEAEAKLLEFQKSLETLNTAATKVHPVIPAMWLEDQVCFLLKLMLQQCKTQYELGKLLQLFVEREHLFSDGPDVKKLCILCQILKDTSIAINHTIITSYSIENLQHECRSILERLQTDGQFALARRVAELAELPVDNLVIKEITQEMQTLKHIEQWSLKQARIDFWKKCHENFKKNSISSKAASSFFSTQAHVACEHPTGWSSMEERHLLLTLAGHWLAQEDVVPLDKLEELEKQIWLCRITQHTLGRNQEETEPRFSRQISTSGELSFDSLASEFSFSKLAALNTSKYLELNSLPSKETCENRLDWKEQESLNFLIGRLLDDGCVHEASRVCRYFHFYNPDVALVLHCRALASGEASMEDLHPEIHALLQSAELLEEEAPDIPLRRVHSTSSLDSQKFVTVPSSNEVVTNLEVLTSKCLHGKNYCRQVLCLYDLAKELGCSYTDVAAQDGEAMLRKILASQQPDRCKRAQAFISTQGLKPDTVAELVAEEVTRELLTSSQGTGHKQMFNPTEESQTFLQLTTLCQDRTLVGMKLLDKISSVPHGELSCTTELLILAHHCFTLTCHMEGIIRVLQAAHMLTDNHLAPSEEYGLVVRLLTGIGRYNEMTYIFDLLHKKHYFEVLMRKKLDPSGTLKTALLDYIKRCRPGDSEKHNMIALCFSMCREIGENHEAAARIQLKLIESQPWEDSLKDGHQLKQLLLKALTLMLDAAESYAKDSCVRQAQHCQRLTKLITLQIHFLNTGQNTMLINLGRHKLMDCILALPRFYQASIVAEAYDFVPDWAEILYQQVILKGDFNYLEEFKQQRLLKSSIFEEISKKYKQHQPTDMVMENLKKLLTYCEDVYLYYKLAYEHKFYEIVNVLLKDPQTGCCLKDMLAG
UniProt Q9BYN0: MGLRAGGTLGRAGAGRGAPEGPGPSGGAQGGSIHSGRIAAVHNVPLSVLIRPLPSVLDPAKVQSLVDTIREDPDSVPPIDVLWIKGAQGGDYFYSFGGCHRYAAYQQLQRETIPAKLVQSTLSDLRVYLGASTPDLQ
UniProt Q15005: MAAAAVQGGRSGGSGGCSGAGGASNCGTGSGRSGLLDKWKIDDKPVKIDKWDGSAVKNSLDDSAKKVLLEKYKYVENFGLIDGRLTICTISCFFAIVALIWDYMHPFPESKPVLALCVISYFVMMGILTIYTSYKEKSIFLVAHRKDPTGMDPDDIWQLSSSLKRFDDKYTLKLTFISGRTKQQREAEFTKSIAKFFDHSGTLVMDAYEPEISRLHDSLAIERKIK
UniProt O76094: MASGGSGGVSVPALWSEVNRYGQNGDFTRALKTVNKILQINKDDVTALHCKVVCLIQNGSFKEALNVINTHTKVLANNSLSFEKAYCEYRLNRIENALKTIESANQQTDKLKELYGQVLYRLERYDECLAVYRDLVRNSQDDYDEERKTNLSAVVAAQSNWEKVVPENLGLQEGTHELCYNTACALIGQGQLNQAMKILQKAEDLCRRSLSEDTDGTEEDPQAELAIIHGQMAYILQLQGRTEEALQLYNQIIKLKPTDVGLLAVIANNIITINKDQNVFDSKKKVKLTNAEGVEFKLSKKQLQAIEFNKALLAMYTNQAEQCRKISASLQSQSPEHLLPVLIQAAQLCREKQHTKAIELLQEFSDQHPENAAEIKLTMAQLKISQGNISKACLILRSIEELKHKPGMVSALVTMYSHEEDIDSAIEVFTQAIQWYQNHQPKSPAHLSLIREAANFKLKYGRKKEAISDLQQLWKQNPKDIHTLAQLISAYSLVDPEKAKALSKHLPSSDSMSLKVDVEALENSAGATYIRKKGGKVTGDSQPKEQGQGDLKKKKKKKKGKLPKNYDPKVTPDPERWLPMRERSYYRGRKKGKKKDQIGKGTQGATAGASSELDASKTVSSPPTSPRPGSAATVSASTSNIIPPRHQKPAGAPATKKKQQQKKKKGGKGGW
UniProt O00506, whole entry, looked up: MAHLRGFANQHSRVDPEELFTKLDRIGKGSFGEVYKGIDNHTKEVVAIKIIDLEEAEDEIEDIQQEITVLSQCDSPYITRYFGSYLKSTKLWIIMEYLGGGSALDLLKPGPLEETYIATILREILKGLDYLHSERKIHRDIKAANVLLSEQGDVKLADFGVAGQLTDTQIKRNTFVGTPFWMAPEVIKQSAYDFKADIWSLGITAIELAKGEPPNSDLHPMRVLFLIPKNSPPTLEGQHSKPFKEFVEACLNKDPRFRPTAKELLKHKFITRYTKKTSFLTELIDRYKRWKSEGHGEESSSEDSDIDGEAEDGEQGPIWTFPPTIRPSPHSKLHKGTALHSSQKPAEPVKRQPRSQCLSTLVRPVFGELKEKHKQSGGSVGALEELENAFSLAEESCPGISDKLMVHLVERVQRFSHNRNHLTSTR

Experiments:
Test in all cases: log2 fold change, soluble protein after heating vs DMSO (PISA); higher = thermal stabilisation; K562 cells, 10 uM, 30 min; active = over 0.2 and 3.5 SD of the protein, either way, in both replicates (recomputed)
[1] = compound: CC1=C(C=C(C=C1)NC(=O)C2=CC(=CC=C2)C(C)(C)C#N)NC3=CC4=C(C=C3)N=CN(C4=O)C
Summary of the method: (§1)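 K562 cells (2×10^6 cells/mL) were treated with 10 μM compound for 30 min, and aliquots were heated for 3 min over 48°C-58°C. Pooled aliquots were extracted in PBS with 0.5% NP-40 at 4°C, and the supernatant after 21,000xg for 90 min was measured by TMTpro 16plex LC-MS/MS with channel sums equalised. Reported thermal stability, relative to control samples and from duplicates, is a log2 fold change.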

[2] = compound: CC1=C(C=C(C=C1)NC(=O)C2=CC(=CC=C2)N(C)C)NC(=O)C3=CC=C(C=C3)O
Summary of the method: as §1

[3] = compound: CC1=CC=C(C=C1)SC2=C3C=C(SC3=CN=C2)C(=O)N
Summary of the method: as §1

[4] = compound: CC1=NC(=CC=C1)C2=C(N=C(N2)C(C)(C)C)C3=CC4=NC=CN=C4C=C3
Summary of the method: as §1

Nexturastat A = compound: CCCCN(Cc1ccc(C(=O)NO)cc1)C(=O)Nc1ccccc1 [Nexturastat A]
Summary of the method: as §1

vemurafenib = compound: CCCS(=O)(=O)Nc1ccc(F)c(C(=O)c2c[nH]c3ncc(-c4ccc(Cl)cc4)cc23)c1F [vemurafenib]
Summary of the method: as §1

[5] = compound: CCCS(=O)(=O)Nc1ccc(F)c(C(=O)c2c[nH]c3ncc(Cl)cc23)c1F
Summary of the method: as §1

[6] = compound: CCCc1cc(C)[nH]c(=O)c1CNC(=O)c1cc(-c2ccnc(N3CCN(C)CC3)c2)cc2c1cnn2C(C)C
Summary of the method: as §1

givinostat = compound: CCN(CC)Cc1ccc2cc(COC(=O)Nc3ccc(C(=O)NO)cc3)ccc2c1 [givinostat]
Summary of the method: as §1

barasertib = compound: CCN(CCCOc1ccc2c(Nc3cc(CC(=O)Nc4cccc(F)c4)[nH]n3)ncnc2c1)CCOP(=O)(O)O [barasertib]
Summary of the method: as §1

[7] = compound: CC[C@@H]1C(=O)N(C)c2cnc(Nc3ccc(C(=O)NC4CCN(C)CC4)cc3OC)nc2N1C1CCCC1
Summary of the method: as §1

volasertib = compound: CC[C@@H]1C(=O)N(C)c2cnc(Nc3ccc(C(=O)N[C@H]4CC[C@H](N5CCN(CC6CC6)CC5)CC4)cc3OC)nc2N1C(C)C [volasertib]
Summary of the method: as §1

[8] = compound: CC[C@H](C)N1C=C(C2=C(C=C(C=C21)C3=CN=C(C=C3)N4CCNCC4)C(=O)NCC5=C(C=C(NC5=O)C)C)C
Summary of the method: as §1

epoxomicin = compound: CC[C@H](C)[C@@H](C(=O)N[C@@H]([C@@H](C)O)C(=O)N[C@@H](CC(C)C)C(=O)[C@]1(CO1)C)NC(=O)[C@H]([C@@H](C)CC)N(C)C(=O)C [epoxomicin]
Summary of the method: as §1

[9] = compound: CCn1cc(-c2ccnc3[nH]c(-c4cccc(CN(C)C)c4)cc23)c(-c2ccc(NC(=O)N(C)C)cc2)n1
Summary of the method: as §1

[10] = compound: CN(C)CC(=O)Nc1ccc2[nH]c(=O)c3ccccc3c2c1
Summary of the method: as §1

[11] = compound: CN1C2=C(C3=C1C(=O)N(N=C3)CC4=CC(=CC=C4)N)SC(=C2)S(=O)C
Summary of the method: as §1

[12] = compound: CN1CCC(CNc2ccc3ncc(-c4cccc(OC(F)(F)F)c4)n3n2)CC1
Summary of the method: as §1

[13] = compound: CCn1c(C(=O)N(C2CC2)C2CC2)cc2c3c(ncn3C)c(Nc3cc(C)n(C)n3)nc21
Summary of the method: as §1

rosiglitazone = compound: CN(CCOC1=CC=C(C=C1)C[C@H]2C(=O)NC(=O)S2)C3=CC=CC=N3 (racemic) [rosiglitazone]
Summary of the method: as §1

Measured: log2 fold change

STAT6 (UniProt P42226)
inactive: [1] -0.092 | [2] -0.111 | [3] 0.053 | [4] 0.015 | Nexturastat A 0.044 | vemurafenib 0.058 | [5] 0.082 | [6] -0.012 | givinostat 0.078 | barasertib 0.001 | [7] -0.196 | [8] -0.02 | epoxomicin -0.074 | [9] 0.1 | [10] 0.093 | [11] 0.018 | [12] -0.11
active: volasertib -0.594

SRSF6 (UniProt Q13247)
inactive: [1] -0.012 | [3] -0.16 | [4] 0.126 | Nexturastat A 0.248 | vemurafenib -0.024 | [5] -0.058 | [6] 0.104 | givinostat 0.019 | barasertib -0.059 | [7] 0.011 | volasertib 0.174 | [8] 0.116 | epoxomicin -0.181 | [9] 0.028 | [10] -0.08 | [11] 0.207 | [12] 0.315

SPINT1 (UniProt O43278)
inactive: [1] -0.018 | [2] -0.023 | [3] 0.042 | [4] -0.113 | Nexturastat A 0.07 | vemurafenib -0.068 | [5] -0.005 | givinostat 0.066 | volasertib -0.107 | epoxomicin -0.035 | [13] 0.003 | [9] -0.154 | [10] -0.179 | [12] 0.049

SRRM2 (UniProt Q9UQ35)
inactive: [1] -0.022 | [2] 0.01 | [3] -0.067 | [4] 0.147 | Nexturastat A 0.156 | vemurafenib 0.068 | [5] 0.007 | [6] 0.01 | givinostat 0.082 | barasertib -0.041 | [7] -0.025 | volasertib 0.009 | [8] 0.046 | epoxomicin -0.071 | [9] -0.072 | [10] 0.053 | [11] 0.062 | [12] -0.222

SSRP1 (UniProt Q08945)
active: volasertib -0.412
inactive: [1] -0.072 | [2] -0.049 | [3] 0.018 | [4] 0.091 | Nexturastat A -0.069 | vemurafenib 0.051 | [5] 0.062 | [6] 0.015 | givinostat 0.033 | barasertib 0.059 | [7] -0.121 | [8] 0.052 | epoxomicin 0.02 | [9] 0.007 | [10] 0.01 | [11] -0.003 | [12] -0.067

STAT2 (UniProt P52630)
inactive: [1] -0.241 | [2] -0.132 | [4] -0.088 | vemurafenib 0.044 | [6] 0.185 | givinostat 0.216 | barasertib 0.103 | [7] 0.003 | [13] -0.1 | [9] 0.284 | [10] -0.134 | rosiglitazone 0.181 | [11] 0.27 | [12] -0.086

SRRD (UniProt Q9UH36)
inactive: [1] -0.101 | [3] -0.01 | [4] -0.122 | Nexturastat A -0.039 | [5] 0 | [6] 0.204 | givinostat -0.02 | barasertib 0.115 | [7] -0.055 | volasertib -0.042 | [8] 0.127 | epoxomicin -0.068 | [13] -0.057 | rosiglitazone 0.014

SRSF9 (UniProt Q13242)
inactive: [1] -0.044 | [2] 0.015 | [3] -0.083 | [4] -0.082 | Nexturastat A 0.37 | vemurafenib -0.116 | [5] 0.076 | [6] 0.075 | givinostat 0.151 | barasertib -0.082 | [7] 0.189 | volasertib 0.414 | [8] -0.004 | epoxomicin -0.421 | [9] 0.323 | [10] -0.106 | [11] 0.506 | [12] 0.364

SPG11 (UniProt Q96JI7)
inactive: [1] -0.384 | [2] 0.068 | [3] -0.063 | [4] -0.182 | Nexturastat A 0.359 | vemurafenib -0.415 | [5] -0.008 | [6] -1.21 | givinostat 0.023 | barasertib 0.029 | [7] 0.155 | volasertib -0.294 | [8] 0.017 | epoxomicin -0.085 | [9] 0.141 | [10] -0.216 | [11] 0.367
active: [12] -1.24

SSBP3 (UniProt Q9BWW4)
inactive: [1] 0.011 | [2] -0.019 | [3] -0.009 | Nexturastat A -0.065 | vemurafenib -0.001 | [5] 0.031 | [6] -0.013 | givinostat -0.009 | barasertib 0.021 | [7] -0.041 | volasertib 0.036 | [8] -0.027 | epoxomicin 0.1 | [13] 0.016 | [9] -0.037 | [10] 0.085 | rosiglitazone -0.074 | [11] 0.097 | [12] 0.098

Two successive records out of the list so far, for reference:
SPG11 (UniProt Q96JI7)
inactive: [1] -0.384 | [2] 0.068 | [3] -0.063 | [4] -0.182 | Nexturastat A 0.359 | vemurafenib -0.415 | [5] -0.008 | [6] -1.21 | givinostat 0.023 | barasertib 0.029 | [7] 0.155 | volasertib -0.294 | [8] 0.017 | epoxomicin -0.085 | [9] 0.141 | [10] -0.216 | [11] 0.367
active: [12] -1.24

SSBP3 (UniProt Q9BWW4)
inactive: [1] 0.011 | [2] -0.019 | [3] -0.009 | Nexturastat A -0.065 | vemurafenib -0.001 | [5] 0.031 | [6] -0.013 | givinostat -0.009 | barasertib 0.021 | [7] -0.041 | volasertib 0.036 | [8] -0.027 | epoxomicin 0.1 | [13] 0.016 | [9] -0.037 | [10] 0.085 | rosiglitazone -0.074 | [11] 0.097 | [12] 0.098

Remaining list, next part.

STAM2 (UniProt O75886)
active: volasertib -0.297
inactive: [1] -0.08 | [2] -0.032 | [3] 0.034 | [4] 0.069 | Nexturastat A -0.012 | vemurafenib 0.009 | [5] 0.074 | [6] -0.038 | givinostat 0.021 | barasertib 0.028 | [7] -0.039 | [8] 0.063 | epoxomicin 0.039 | [9] -0.056 | [10] 0 | [11] -0.033 | [12] -0.128

SRXN1 (UniProt Q9BYN0)
inactive: [1] -0.149 | [2] 0.01 | [3] 0.04 | [4] 0.089 | Nexturastat A -0.036 | vemurafenib 0.142 | [5] 0.017 | [6] -0.027 | barasertib 0.012 | [7] -0.031 | volasertib -0.083 | [8] 0.027 | epoxomicin 0.069 | [9] 0.159 | [10] 0.046 | [12] -0.199

SPCS2 (UniProt Q15005)
inactive: [1] 0.011 | [2] 0.004 | [3] 0 | [4] 0.3 | Nexturastat A -0.052 | vemurafenib 0.075 | [5] 0.058 | [6] -0.011 | givinostat -0.009 | barasertib 0.025 | [7] 0.018 | volasertib -0.006 | [8] 0.02 | epoxomicin 0.091 | [9] -0.009 | [10] 0.038 | [11] -0.078 | [12] 0.005

SRP72 (UniProt O76094)
inactive: [1] 0.024 | [2] -0.01 | [3] 0.034 | [4] -0.009 | Nexturastat A 0.171 | vemurafenib 0.037 | [5] 0.09 | [6] 0.046 | givinostat 0.143 | barasertib 0.078 | [7] -0.093 | volasertib -0.518 | [8] 0.119 | epoxomicin 0.001 | [9] -0.034 | [10] 0.03 | [11] 0.119 | [12] -0.168

SPATA31E1 (UniProt Q6ZUB1)
inactive: [1] -0.192 | [2] -0.102 | [3] -0.167 | [4] -0.143 | vemurafenib -0.121 | [5] -0.374 | [6] -0.297 | barasertib 0.094 | [7] 0.251 | volasertib 0.122 | [8] -0.292 | [9] 0.232 | [10] 0.017 | rosiglitazone 0.074 | [11] 0.045 | [12] -0.202

STK25 (UniProt O00506)
inactive: [1] -0.102 | [2] 0.014 | [3] -0.011 | [4] 0.029 | Nexturastat A -0.006 | vemurafenib -0.021 | [5] 0.011 | [6] -0.052 | givinostat 0.056 | barasertib 0.025 | [7] -0.031 | volasertib -0.107 | [8] 0.024 | epoxomicin 0.033 | [9] -0.008 | [10] -0.024 | [11] 0.017 | [12] -0.216

SSU72 (UniProt Q9NP77)
inactive: [1] 0.069 | [3] 0.143 | [4] 0.187 | Nexturastat A 0.011 | vemurafenib 0.147 | [5] 0.086 | [6] -0.1 | givinostat 0.247 | barasertib -0.111 | volasertib -0.444 | epoxomicin 0.116 | [13] -0.219 | [9] -0.077 | [10] 0.182 | rosiglitazone 0.028 | [11] 0.028 | [12] -0.449
